PubChem BioAssay AID1259308, NCATS – 2017
Purpose: 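Genes whose loss raises luciferase production in HEK293 cells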 (primary screen). Cell system: human HEK293 embryonic kidney cells stably expressing firefly luciferase (HEK-CMV-Luc2-Hygro). Reagent: single siRNA against human genes, 0.8 pmol siRNA per well. Timing: 72 h. Read-out: 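Luciferase light (ONE-Glo) measured on one replicate plate set and viability (CellTiter-Glo) on the other, scaled to a negative control siRNA, with robust z-scores and luciferase per cell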. Direction: total luciferase, z-score and total luciferase, % of control: higher = more reporter protein produced; luciferase per cell, z-score: higher = more reporter output per viable cell; viable cells, % of control: higher = more viable cells. Hit rule: 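Active when the median/MAD z-score for overall luciferase is greater than 3; a gene was taken forward for validation with new siRNAs if at least two of its three siRNAs passed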. Calls: active = raised luciferase; inactive = no rise.
In all, the deposit lists about 59,000 reagents; shown is a part drawn at random. Of all reagents, about 1,510 (2.6%) were called active. 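Calls use total luciferase alone and ignore viability, so some active siRNAs may act by altering cell number.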 Entries without a mark were called inactive. Reagents against one gene are numbered here.

The opening 7 entries, to show the layout:
Target gene	reagent	total luciferase, z-score	total luciferase, % of control	luciferase per cell, z-score	viable cells, % of control
BMP10	1	0.155	85	-0.459	107
BMP10	2	2.58	133	2.21	83.1
BMP10	3	-0.248	77	0.108	83.6
UCN2	1	0.844	98.7	0.267	103
UCN2	2	0.461	91.1	0.339	93.1
UCN2	3	-1.46	52.8	-1.75	93.7
ADAMTS7	1	0.522	92.3	-0.0314	104

Results, from the start:
Target gene	reagent	total luciferase, z-score	total luciferase, % of control	luciferase per cell, z-score	viable cells, % of control
BMP10	1	0.155	85	-0.459	107
BMP10	2	2.58	133	2.21	83.1
BMP10	3	-0.248	77	0.108	83.6
UCN2	1	0.844	98.7	0.267	103
UCN2	2	0.461	91.1	0.339	93.1
UCN2	3	-1.46	52.8	-1.75	93.7
ADAMTS7	1	0.522	92.3	-0.0314	104
ADAMTS7	2	-0.0295	81.3	-0.022	91.4
ADAMTS7	3	-0.686	68.2	-0.805	94.3
ISY1	1	2.76	137	4.89	42.2
ISY1	2	0.242	86.7	1.68	62.3
ISY1	3	2.9	140	4.59	46.6
PRRT1B	1	-0.705	67.9	0.2	72
PRRT1B	2	-0.123	79.4	-0.151	92.4
PRRT1B	3	0.927	100	0.904	88.4
ZNF652	1	-0.273	76.5	-0.423	95.5
ZNF652	2	-0.271	76.5	-0.467	96.7
ZNF652	3	0.161	85.1	0.0987	92.6
EAF2	1	0.899	99.8	1.28	79.6
EAF2	2	0.297	87.8	1.05	74.4
EAF2	3	-1.04	61.3	-0.946	87.8
GHSR	1	0.0096	82.1	0.0387	90.8
GHSR	2	-0.347	75	-0.484	95.2
GHSR	3	0.57	93.2	1.17	76.6
PODXL2	1	1.72	116	1.87	79.4
PODXL2	2	0.0651	83.2	0.837	74.6
PODXL2	3	1.45	111	1.96	73.7
INKA2	1	-1.85	45.1	-1.8	80.9
INKA2	2	-0.227	77.4	-0.718	104
INKA2	3	0.0939	83.8	0.673	78.4
TRIM38	1	0.436	90.6	1.53	67.7
TRIM38	2	-0.418	73.6	0.739	67.7
TRIM38	3	1.14	105	1	89.8
TRIM29	1	0.169	85.3	-0.213	101
TRIM29	2	1.78	117	2.13	74.7
TRIM29	3	-0.584	70.3	-0.438	88.1
FAM78A	1	-1.23	57.5	-1.34	91.4
FAM78A	2	0.891	99.6	1.39	77.1
FAM78A	3	-0.464	72.7	-0.638	96
BTD	1	1.26	107	0.548	103
BTD	2	-0.367	74.6	0.553	72.1
BTD	3	0.546	92.7	1.61	67.9
EXD3	1	-1.06	60.8	-0.098	69.7
EXD3	2	2.61	134	1.85	91.9
EXD3	3	-0.0692	80.5	-0.616	106
CXADR	1	-1.14	59.2	-1.88	108
CXADR	2	-1.09	60.2	-0.874	84.7
CXADR	3	1.23	106	0.842	95.2
ITFG2-AS1	1	2.89	139	2.34	84.2
ITFG2-AS1	2	-0.301	75.9	-1.09	113
ITFG2-AS1	3	-1.04	61.3	-1.19	93.6
RPL6P31	1	0.0277	82.4	0.000569	92.1
RPL6P31	2	-0.584	70.3	0.446	69.8
RPL6P31	3	0.469	91.2	0.194	96.9
SOCS6	1	0.314	88.1	-0.256	105
SOCS6	2	-0.457	72.8	-0.0596	82.6
SOCS6	3	0.118	84.2	-0.399	105
